Reference: the supplement of paper PMC7661543
Differences between knockout arms are mostly noise.

System: SKBR3
Test: relative cell number vs DMSO control (72 h) (% of DMSO); higher = less growth inhibition (more cells)
Description: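 QMAP-Seq: a pool of 5 breast cancer cell lines (ZR-75-1, SKBR3, HCC-38, MDA-MB-231, BT-20), each carrying 12 doxycycline-inducible Cas9 sgRNA perturbations (11 knockouts plus non-targeting sgNT), was treated with compounds for 72 h at four 10-fold doses (10 nM-10 uM or 1 nM-1 uM range). Barcodes were amplified and sequenced, and cell number was interpolated from 293T spike-in standard curves. The result is expressed as % of the median of DMSO wells. Two biological replicates.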

Cc1nc(Nc2n[nH]c3c2CN(C(=O)N[C@H](CN(C)C)c2ccccc2)C3(C)C)c2sccc2n1
Details	relative cell number
sgRNA knockout: sgATF3, 10 nM	67.7
sgRNA knockout: sgATF3, 100 nM	59.6
sgRNA knockout: sgATF3, 1000 nM	32.6
sgRNA knockout: sgATF3, 10000 nM	4.88
sgRNA knockout: sgATF4, 10 nM	56.6
sgRNA knockout: sgATF4, 100 nM	43
sgRNA knockout: sgATF4, 1000 nM	23.1
sgRNA knockout: sgATF4, 10000 nM	3.43
sgRNA knockout: sgATF6, 10 nM	64.5
sgRNA knockout: sgATF6, 100 nM	48.5
sgRNA knockout: sgATF6, 1000 nM	19.4
sgRNA knockout: sgATF6, 10000 nM	3.71
sgRNA knockout: sgATG7, 10 nM	53.1
sgRNA knockout: sgATG7, 100 nM	59.3
sgRNA knockout: sgATG7, 1000 nM	28
sgRNA knockout: sgATG7, 10000 nM	2.99
sgRNA knockout: sgERN1, 10 nM	67.3
sgRNA knockout: sgERN1, 100 nM	44.03
sgRNA knockout: sgERN1, 1000 nM	23.4
sgRNA knockout: sgERN1, 10000 nM	2.8
sgRNA knockout: sgHSF1, 10 nM	61.2
sgRNA knockout: sgHSF1, 100 nM	37
sgRNA knockout: sgHSF1, 1000 nM	26
sgRNA knockout: sgHSF1, 10000 nM	5.67
sgRNA knockout: sgHSF2, 10 nM	65.2
sgRNA knockout: sgHSF2, 100 nM	57.2
sgRNA knockout: sgHSF2, 1000 nM	25.2
sgRNA knockout: sgHSF2, 10000 nM	3.22
sgRNA knockout: sgKEAP1, 10 nM	56.5
sgRNA knockout: sgKEAP1, 100 nM	44.58
sgRNA knockout: sgKEAP1, 1000 nM	20.5
sgRNA knockout: sgKEAP1, 10000 nM	3.93
sgRNA knockout: sgNFE2L2, 10 nM	59.9
sgRNA knockout: sgNFE2L2, 100 nM	50.2
sgRNA knockout: sgNFE2L2, 1000 nM	22.3
sgRNA knockout: sgNFE2L2, 10000 nM	3.36
sgRNA knockout: sgSLC35F2, 10 nM	61.5
sgRNA knockout: sgSLC35F2, 100 nM	54.398
sgRNA knockout: sgSLC35F2, 1000 nM	18.7
sgRNA knockout: sgSLC35F2, 10000 nM	4.98
sgRNA knockout: sgXBP1, 10 nM	52
sgRNA knockout: sgXBP1, 100 nM	51
sgRNA knockout: sgXBP1, 1000 nM	22.4
sgRNA knockout: sgXBP1, 10000 nM	2.05

CCCS(=O)(=O)Nc1ccc(F)c(C(=O)c2c[nH]c3ncc(Cl)cc23)c1F [PLX4720]
Details	relative cell number
sgRNA knockout: sgATF3, 10 nM	96.3
sgRNA knockout: sgATF3, 100 nM	91.1
sgRNA knockout: sgATF3, 1000 nM	85.9
sgRNA knockout: sgATF3, 10000 nM	98.7
sgRNA knockout: sgATF4, 10 nM	96.8
sgRNA knockout: sgATF4, 100 nM	93
sgRNA knockout: sgATF4, 1000 nM	107
sgRNA knockout: sgATF4, 10000 nM	94.6
sgRNA knockout: sgATF6, 10 nM	94.2
sgRNA knockout: sgATF6, 100 nM	71.9
sgRNA knockout: sgATF6, 1000 nM	99.9
sgRNA knockout: sgATF6, 10000 nM	96
sgRNA knockout: sgATG7, 10 nM	98.4
sgRNA knockout: sgATG7, 100 nM	94.6
sgRNA knockout: sgATG7, 1000 nM	80.1
sgRNA knockout: sgATG7, 10000 nM	97.7
sgRNA knockout: sgERN1, 10 nM	95.3
sgRNA knockout: sgERN1, 100 nM	91
sgRNA knockout: sgERN1, 1000 nM	93.26
sgRNA knockout: sgERN1, 10000 nM	101
sgRNA knockout: sgHSF1, 10 nM	89
sgRNA knockout: sgHSF1, 100 nM	88.7
sgRNA knockout: sgHSF1, 1000 nM	88
sgRNA knockout: sgHSF1, 10000 nM	94.8
sgRNA knockout: sgHSF2, 10 nM	91.8
sgRNA knockout: sgHSF2, 100 nM	91.2
sgRNA knockout: sgHSF2, 1000 nM	98.9
sgRNA knockout: sgHSF2, 10000 nM	84.6
sgRNA knockout: sgKEAP1, 10 nM	92.3
sgRNA knockout: sgKEAP1, 100 nM	84.4
sgRNA knockout: sgKEAP1, 1000 nM	97.9
sgRNA knockout: sgKEAP1, 10000 nM	94.9
sgRNA knockout: sgNFE2L2, 10 nM	90.3
sgRNA knockout: sgNFE2L2, 100 nM	104
sgRNA knockout: sgNFE2L2, 1000 nM	91
sgRNA knockout: sgNFE2L2, 10000 nM	84.5
sgRNA knockout: sgSLC35F2, 10 nM	111
sgRNA knockout: sgSLC35F2, 100 nM	87.8
sgRNA knockout: sgSLC35F2, 1000 nM	105
sgRNA knockout: sgSLC35F2, 10000 nM	97.9
sgRNA knockout: sgXBP1, 10 nM	107
sgRNA knockout: sgXBP1, 100 nM	102
sgRNA knockout: sgXBP1, 1000 nM	79.9
sgRNA knockout: sgXBP1, 10000 nM	74.8

C[C@H]1CCC/C=C/[C@@H]2C[C@H](O)C[C@H]2[C@H](O)/C=C/C(=O)O1 [BrefeldinA]
Details	relative cell number
sgRNA knockout: sgATF3, 10 nM	104
sgRNA knockout: sgATF3, 100 nM	18.1
sgRNA knockout: sgATF3, 1000 nM	8.8
sgRNA knockout: sgATF3, 10000 nM	8.7
sgRNA knockout: sgATF4, 10 nM	97
sgRNA knockout: sgATF4, 100 nM	9.44
sgRNA knockout: sgATF4, 1000 nM	7.97
sgRNA knockout: sgATF4, 10000 nM	11.9
sgRNA knockout: sgATF6, 10 nM	92.4
sgRNA knockout: sgATF6, 100 nM	15.4
sgRNA knockout: sgATF6, 1000 nM	10
sgRNA knockout: sgATF6, 10000 nM	8.34
sgRNA knockout: sgATG7, 10 nM	91.3
sgRNA knockout: sgATG7, 100 nM	20.1
sgRNA knockout: sgATG7, 1000 nM	8.35
sgRNA knockout: sgATG7, 10000 nM	10.2
sgRNA knockout: sgERN1, 10 nM	92.3
sgRNA knockout: sgERN1, 100 nM	14.58
sgRNA knockout: sgERN1, 1000 nM	6.83
sgRNA knockout: sgERN1, 10000 nM	8.24
sgRNA knockout: sgHSF1, 10 nM	83.5
sgRNA knockout: sgHSF1, 100 nM	13.4
sgRNA knockout: sgHSF1, 1000 nM	9
sgRNA knockout: sgHSF1, 10000 nM	10.2
sgRNA knockout: sgHSF2, 10 nM	84.5
sgRNA knockout: sgHSF2, 100 nM	14.5
sgRNA knockout: sgHSF2, 1000 nM	10.7
sgRNA knockout: sgHSF2, 10000 nM	12.1
sgRNA knockout: sgKEAP1, 10 nM	85.1
sgRNA knockout: sgKEAP1, 100 nM	10.4
sgRNA knockout: sgKEAP1, 1000 nM	8.59
sgRNA knockout: sgKEAP1, 10000 nM	7.27
sgRNA knockout: sgNFE2L2, 10 nM	87.6
sgRNA knockout: sgNFE2L2, 100 nM	13.3
sgRNA knockout: sgNFE2L2, 1000 nM	10.9
sgRNA knockout: sgNFE2L2, 10000 nM	8.44
sgRNA knockout: sgSLC35F2, 10 nM	74.5
sgRNA knockout: sgSLC35F2, 100 nM	16.5
sgRNA knockout: sgSLC35F2, 1000 nM	5.19
sgRNA knockout: sgSLC35F2, 10000 nM	11.2
sgRNA knockout: sgXBP1, 10 nM	76.7
sgRNA knockout: sgXBP1, 100 nM	16.3
sgRNA knockout: sgXBP1, 1000 nM	8.54
sgRNA knockout: sgXBP1, 10000 nM	10.9
